Taken from: PubChem BioAssay AID652243 (Drosophila RNAi Screening Center, 2013)
Test: 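Fly genes required for human androgen receptor driven transcription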 (primary screen). Cell system: Drosophila S2R+ cells. Reagents: long dsRNA against Drosophila genes. Duration: 72 h (48 h, then 24 h hormone). Conditions: synthetic androgen R1881 at 10 nM for 24 h. Detection: 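Firefly light from an androgen-responsive reporter and Renilla control light per well, raw and unnormalised, for each of two replicates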. Scale: firefly reporter light: higher = more light from androgen-responsive reporter; Renilla control light: higher = more constitutive control signal (cell number, transfection). Hit rule: 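Across duplicate plates, a knock-down whose log firefly/Renilla ratio shifted a set fold down or up from the GFP/LacZ control mean was a hit; the downward cut appears as both 1.5 and 3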. Meaning of the calls: active = hit: reporter lowered or raised; inactive = no hit.
The deposit covers about 24,000 reagents; shown is an unselected part of those that have a named target and a result. In the full data, 246 (1%) were called active. 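Plates not normalised; calls are printed but the firefly/Renilla ratio behind them is not deposited; fold cut for lowering reported inconsistently.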 The raw values are shown without normalisation. A plus sign joins genes that one reagent is predicted to hit. The record does not give: the amount of reagent.

no.	target gene	dsRNA	firefly reporter light, replicate 1	firefly reporter light, replicate 2	Renilla control light, replicate 1	Renilla control light, replicate 2	Call
1	mRpL41 (GeneID 36688)	DRSC06257	60616	90190	8.69e5	8.69e5	inactive
2	mRpL41 (GeneID 36688)	DRSC29395	3.97e5	4.86e5	1.62e6	1.62e6	inactive
3	mRpL41 (GeneID 36688)	DRSC39029	6.91e5	7.77e5	2.08e6	1.83e6	inactive
4	Obp50c + Obp50b	DRSC05482	1.39e5	1.28e5	2.34e5	2.92e5	inactive
5	Fer2 (GeneID 41961)	DRSC15925	2.25e5	3.65e5	3.32e6	3.21e6	inactive
6	CG15357 (GeneID 50192)	DRSC00387	1.36e5	1.39e5	8.22e5	1.04e6	inactive
7	Nup54 (GeneID 36360)	DRSC07282	5.68e5	4.55e5	9.48e5	9.10e5	inactive
8	Pnn (GeneID 41185)	DRSC16415	97562	1.48e5	2.34e6	2.47e6	inactive
9	crp (GeneID 34956)	DRSC03515	1.01e5	1.23e5	1.14e6	1.49e6	inactive
10	GstD9 (GeneID 41502)	DRSC14185	1.14e5	93189	2.45e6	1.85e6	inactive
11	GstD9 (GeneID 41502)	DRSC25307	5.06e5	4.20e5	6.46e5	5.70e5	inactive
12	CG3437 (GeneID 39096)	DRSC10366	1.25e5	1.09e5	1.79e6	1.97e6	inactive
13	CG3437 (GeneID 39096)	DRSC24768	6.30e5	7.82e5	1.13e6	1.25e6	inactive
14	CG11815 (GeneID 38263)	DRSC08209	94670	1.07e5	9.18e5	1.29e6	inactive
15	CG11815 (GeneID 38263)	DRSC27752	4.64e5	2.87e5	8.72e5	6.63e5	inactive
16	dec (GeneID 31691)	DRSC18759	3.44e5	3.74e5	3.08e6	2.59e6	inactive
17	dec (GeneID 31691)	DRSC21477	7.15e5	9.20e5	2.56e6	1.70e6	inactive
18	dec (GeneID 31691)	DRSC27935	1.05e6	5.56e5	3.07e6	1.05e6	inactive
19	chb (GeneID 43901)	DRSC11469	68049	71761	2.30e5	2.06e5	inactive
20	chb (GeneID 43901)	DRSC39154	4.09e5	3.13e5	1.38e6	1.36e6	inactive
21	ppk9 (GeneID 37498)	DRSC04134	3.29e5	3.28e5	1.88e6	1.78e6	inactive
22	ppk9 (GeneID 37498)	DRSC04135	2.69e5	3.13e5	1.68e6	1.91e6	inactive
23	CG31533 (GeneID 318788)	DRSC13018	1.49e5	76101	1.77e5	1.87e5	inactive
24	CG15111 (GeneID 37200)	DRSC21467	8.28e5	8.89e5	1.98e6	2.21e6	inactive
25	CG17977 (GeneID 50251)	DRSC06700	3.89e5	4.23e5	2.41e6	2.08e6	inactive
26	Ctl2 (GeneID 43440)	DRSC14423	1.09e5	97720	8.51e5	4.55e5	inactive
27	Ctl2 (GeneID 43440)	DRSC29712	3.32e5	3.82e5	1.51e6	1.38e6	inactive
28	ptc (GeneID 35851)	DRSC05117	1.44e5	2.16e5	5.54e5	6.15e5	inactive
29	ptc (GeneID 35851)	DRSC07669	4.33e5	3.65e5	1.84e6	1.96e6	inactive
30	Arc42 (GeneID 42364)	DRSC14340	3.16e5	2.62e5	2.71e6	2.75e6	inactive
31	Arc42 (GeneID 42364)	DRSC15627	4.90e5	3.99e5	2.22e6	2.30e6	inactive
32	Srp72 (GeneID 42439)	DRSC15800	70893	54857	8.37e5	7.22e5	inactive
33	Srp72 (GeneID 42439)	DRSC28338	2.46e5	5.93e5	6.55e5	1.36e6	inactive
34	CG13901 (GeneID 38095)	DRSC08371	77627	73468	1.40e6	1.48e6	inactive
35	GC2 (GeneID 41449)	DRSC14476	2.63e5	2.99e5	2.57e6	3.00e6	inactive
36	GC2 (GeneID 41449)	DRSC27370	3.10e5	3.71e5	7.58e5	7.84e5	inactive
37	CG14563 (GeneID 40435)	DRSC11724	2.24e5	89011	2.46e6	1.38e6	inactive
38	RhoGEF64C (GeneID 38578)	DRSC08318	6.42e5	5.62e5	1.36e6	1.70e6	inactive
39	RhoGEF64C (GeneID 38578)	DRSC08319	1.23e5	87197	1.18e6	1.14e6	inactive
40	RhoGEF64C (GeneID 38578)	DRSC25939	3.47e5	3.64e5	8.12e5	9.94e5	inactive
41	Nbr (GeneID 35385)	DRSC03166	6.85e5	5.18e5	2.43e6	1.60e6	inactive
42	glu (GeneID 35001)	DRSC03539	6.35e5	7.86e5	1.66e6	1.51e6	inactive
43	glu (GeneID 35001)	DRSC26151	3.33e5	2.53e5	8.77e5	7.63e5	inactive
44	CG33340 (GeneID 2768682)	DRSC14615	1.54e5	1.96e5	1.65e6	1.24e6	inactive
45	CG33340 (GeneID 2768682)	DRSC26638	4.41e5	5.07e5	5.41e5	5.33e5	inactive
46	CG6793 (GeneID 39369)	DRSC10714	3.28e5	2.52e5	3.58e6	2.49e6	inactive
47	CG6793 (GeneID 39369)	DRSC29291	5.61e5	5.22e5	1.48e6	1.49e6	inactive
48	CG9313 (GeneID 37374)	DRSC04540	6.70e5	7.12e5	1.87e6	1.59e6	inactive
49	CG9313 (GeneID 37374)	DRSC27041	3.05e5	2.29e5	5.46e5	4.21e5	inactive
50	hlk (GeneID 46017)	DRSC05021	2.19e5	2.28e5	1.32e6	1.17e6	inactive
51	hlk (GeneID 46017)	DRSC05022	2.22e5	2.30e5	1.85e6	2.09e6	inactive
52	hlk (GeneID 46017)	DRSC26150	3.34e5	1.81e5	7.66e5	4.95e5	inactive
53	CG10916 (GeneID 37081)	DRSC06012	2.53e5	3.20e5	3.65e5	3.99e5	inactive
54	CG31638 (GeneID 33910)	DRSC02269	61889	43576	1.09e6	1.16e6	active
55	CG31638 (GeneID 33910)	DRSC03259	90933	91255	1.07e6	1.01e6	inactive
56	CG31638 (GeneID 33910)	DRSC25082	7.05e5	6.60e5	1.02e6	1.23e6	inactive
57	Mapmodulin (GeneID 37043)	DRSC06956	1.05e6	8.08e5	2.05e6	1.48e6	inactive
58	Mapmodulin (GeneID 37043)	DRSC36869					inactive
59	kst (GeneID 38418)	DRSC08719	9.66e5	9.68e5	1.77e6	1.86e6	inactive
60	CG33758 (GeneID 3772381)	DRSC38885	1.02e6	1.02e6	2.33e6	2.51e6	inactive
61	CG5087 (GeneID 39035)	DRSC10479	1.99e5	1.94e5	1.86e6	1.81e6	inactive
62	CG13226 (GeneID 36184)	DRSC06346	2.53e5	3.08e5	1.30e6	1.17e6	inactive
63	p115 (GeneID 31698)	DRSC18813	2.68e5	2.69e5	2.34e6	3.28e6	inactive
64	mask (GeneID 50070)	DRSC15370	1.41e5	1.40e5	1.60e6	1.41e6	inactive
65	mask (GeneID 50070)	DRSC16005	75217	87494	4.18e5	4.28e5	inactive
66	mask (GeneID 50070)	DRSC16018	91295	92783	4.98e5	5.27e5	inactive
67	mask (GeneID 50070)	DRSC25063	3.14e5	3.43e5	3.70e5	3.34e5	inactive
68	JMJD4 (GeneID 35089)	DRSC03025	1.43e6	1.09e6	3.07e6	2.63e6	inactive
69	JMJD4 (GeneID 35089)	DRSC25368	7.42e5	6.06e5	8.56e5	1.09e6	inactive
70	CG7409 (GeneID 38870)	DRSC10842	1.59e5	1.03e5	1.68e6	1.74e6	inactive
71	CG7409 (GeneID 38870)	DRSC30043	9.45e5	8.06e5	1.49e6	1.11e6	inactive
72	CG34327 (GeneID 5740714)	DRSC19517	6.40e5	5.73e5	3.00e6	2.86e6	inactive
73	CG34327 (GeneID 5740714)	DRSC22380	1.06e6	9.54e5	2.42e6	1.75e6	inactive
74	CG34327 (GeneID 5740714)	DRSC29197	5.76e5	5.08e5	1.51e6	1.28e6	inactive

Called active, of those listed so far:
target gene	dsRNA	firefly reporter light, replicate 1	firefly reporter light, replicate 2	Renilla control light, replicate 1	Renilla control light, replicate 2	Call
CG31638 (GeneID 33910)	DRSC02269	61889	43576	1.09e6	1.16e6	active
